Measured values: the supplement of paper PMC10849652
The list shows a part of the results.

By UniProt entry, the sequences of proteins in these tests, tags left out. Where a name states a change or a piece, a line headed by the entry shows the natural chain unless it says otherwise.
UniProt P37287: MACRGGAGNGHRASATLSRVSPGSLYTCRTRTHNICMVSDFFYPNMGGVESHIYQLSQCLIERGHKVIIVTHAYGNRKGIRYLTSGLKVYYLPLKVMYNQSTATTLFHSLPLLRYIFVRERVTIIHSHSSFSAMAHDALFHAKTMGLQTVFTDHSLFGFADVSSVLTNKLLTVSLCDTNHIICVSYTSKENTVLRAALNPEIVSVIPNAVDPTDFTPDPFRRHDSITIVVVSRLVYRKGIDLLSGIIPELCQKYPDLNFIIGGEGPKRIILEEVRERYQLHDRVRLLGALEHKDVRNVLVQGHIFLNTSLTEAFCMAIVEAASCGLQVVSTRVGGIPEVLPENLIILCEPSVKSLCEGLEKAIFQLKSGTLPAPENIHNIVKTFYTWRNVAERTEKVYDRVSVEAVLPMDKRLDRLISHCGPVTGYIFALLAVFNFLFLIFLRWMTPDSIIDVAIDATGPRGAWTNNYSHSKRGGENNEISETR
UniProt Q9NQP4, whole entry, looked up: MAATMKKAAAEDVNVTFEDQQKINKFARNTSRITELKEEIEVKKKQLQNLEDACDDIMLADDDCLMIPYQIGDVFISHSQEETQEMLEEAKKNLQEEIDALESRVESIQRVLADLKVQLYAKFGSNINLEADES
UniProt P51178: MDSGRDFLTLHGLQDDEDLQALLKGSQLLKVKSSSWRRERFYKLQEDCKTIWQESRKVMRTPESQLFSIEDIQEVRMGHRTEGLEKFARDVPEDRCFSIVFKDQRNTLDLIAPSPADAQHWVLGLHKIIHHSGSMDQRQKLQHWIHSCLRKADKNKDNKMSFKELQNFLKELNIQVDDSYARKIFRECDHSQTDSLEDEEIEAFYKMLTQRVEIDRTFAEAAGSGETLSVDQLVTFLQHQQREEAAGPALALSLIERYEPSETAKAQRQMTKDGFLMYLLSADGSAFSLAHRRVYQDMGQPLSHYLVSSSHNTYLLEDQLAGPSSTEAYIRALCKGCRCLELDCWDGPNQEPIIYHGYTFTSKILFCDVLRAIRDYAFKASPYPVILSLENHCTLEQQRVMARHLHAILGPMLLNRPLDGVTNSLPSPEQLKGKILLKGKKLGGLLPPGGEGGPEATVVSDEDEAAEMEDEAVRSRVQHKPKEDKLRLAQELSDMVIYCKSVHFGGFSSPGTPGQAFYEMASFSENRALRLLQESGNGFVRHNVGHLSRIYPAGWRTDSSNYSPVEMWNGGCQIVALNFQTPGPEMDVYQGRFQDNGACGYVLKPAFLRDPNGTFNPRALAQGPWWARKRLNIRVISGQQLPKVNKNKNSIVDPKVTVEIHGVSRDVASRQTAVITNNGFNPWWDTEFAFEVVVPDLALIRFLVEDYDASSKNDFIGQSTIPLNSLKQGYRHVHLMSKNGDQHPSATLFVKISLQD
UniProt P48739: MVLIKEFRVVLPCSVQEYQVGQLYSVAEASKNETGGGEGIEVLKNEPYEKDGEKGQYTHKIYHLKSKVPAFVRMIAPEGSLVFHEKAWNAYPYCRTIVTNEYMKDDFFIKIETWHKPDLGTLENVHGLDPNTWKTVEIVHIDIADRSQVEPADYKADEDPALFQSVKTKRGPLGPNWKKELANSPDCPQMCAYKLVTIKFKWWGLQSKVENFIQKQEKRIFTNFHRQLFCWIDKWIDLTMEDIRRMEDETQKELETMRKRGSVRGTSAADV
UniProt P30613: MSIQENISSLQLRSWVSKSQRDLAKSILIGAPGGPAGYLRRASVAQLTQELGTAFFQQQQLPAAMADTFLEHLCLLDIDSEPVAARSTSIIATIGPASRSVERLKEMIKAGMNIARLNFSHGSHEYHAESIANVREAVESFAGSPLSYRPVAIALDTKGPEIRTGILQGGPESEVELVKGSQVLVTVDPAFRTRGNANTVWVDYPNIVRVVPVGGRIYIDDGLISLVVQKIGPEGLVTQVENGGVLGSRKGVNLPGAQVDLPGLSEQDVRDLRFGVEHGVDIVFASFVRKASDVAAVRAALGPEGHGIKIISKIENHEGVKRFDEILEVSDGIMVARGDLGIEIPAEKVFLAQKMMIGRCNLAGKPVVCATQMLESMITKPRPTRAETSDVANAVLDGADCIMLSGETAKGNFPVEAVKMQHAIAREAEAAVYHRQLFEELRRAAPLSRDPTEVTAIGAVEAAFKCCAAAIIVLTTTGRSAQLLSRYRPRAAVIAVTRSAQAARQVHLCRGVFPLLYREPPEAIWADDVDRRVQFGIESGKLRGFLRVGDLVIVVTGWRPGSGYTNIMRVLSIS
UniProt Q9UBF8: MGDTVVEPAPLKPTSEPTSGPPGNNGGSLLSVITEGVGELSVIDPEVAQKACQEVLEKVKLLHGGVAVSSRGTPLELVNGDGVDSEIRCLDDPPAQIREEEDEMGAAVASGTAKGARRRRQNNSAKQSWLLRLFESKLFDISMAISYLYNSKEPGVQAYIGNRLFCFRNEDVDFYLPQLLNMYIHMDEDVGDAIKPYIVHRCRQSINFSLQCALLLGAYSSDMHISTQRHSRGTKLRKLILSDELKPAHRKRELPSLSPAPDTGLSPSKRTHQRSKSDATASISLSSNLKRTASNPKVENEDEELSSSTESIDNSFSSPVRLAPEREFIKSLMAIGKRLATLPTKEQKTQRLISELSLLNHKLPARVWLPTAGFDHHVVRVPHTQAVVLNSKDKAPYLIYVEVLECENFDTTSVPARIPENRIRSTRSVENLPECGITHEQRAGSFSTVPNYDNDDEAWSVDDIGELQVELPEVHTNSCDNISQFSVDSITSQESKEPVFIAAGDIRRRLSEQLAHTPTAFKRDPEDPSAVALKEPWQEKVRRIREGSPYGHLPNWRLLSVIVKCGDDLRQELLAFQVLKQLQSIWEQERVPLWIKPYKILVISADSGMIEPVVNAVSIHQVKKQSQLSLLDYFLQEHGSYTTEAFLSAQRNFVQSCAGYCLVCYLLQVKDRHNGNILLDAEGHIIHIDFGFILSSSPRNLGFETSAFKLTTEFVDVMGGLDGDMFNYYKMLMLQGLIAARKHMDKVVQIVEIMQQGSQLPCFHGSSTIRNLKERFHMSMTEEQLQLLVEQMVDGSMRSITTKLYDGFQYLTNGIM
UniProt O60825: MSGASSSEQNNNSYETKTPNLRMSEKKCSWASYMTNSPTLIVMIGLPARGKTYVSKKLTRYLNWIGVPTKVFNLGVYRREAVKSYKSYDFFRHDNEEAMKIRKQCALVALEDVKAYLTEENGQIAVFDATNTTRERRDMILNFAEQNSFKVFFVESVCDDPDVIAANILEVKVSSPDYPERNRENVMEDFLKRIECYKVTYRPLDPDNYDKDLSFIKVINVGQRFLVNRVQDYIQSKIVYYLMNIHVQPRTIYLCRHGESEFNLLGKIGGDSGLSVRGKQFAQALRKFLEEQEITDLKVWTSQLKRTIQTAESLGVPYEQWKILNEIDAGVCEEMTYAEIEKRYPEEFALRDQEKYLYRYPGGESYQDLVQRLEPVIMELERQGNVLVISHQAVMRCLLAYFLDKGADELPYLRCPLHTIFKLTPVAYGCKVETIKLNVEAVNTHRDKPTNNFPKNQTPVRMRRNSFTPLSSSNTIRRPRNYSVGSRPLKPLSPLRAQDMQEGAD
UniProt O15212, whole entry, looked up: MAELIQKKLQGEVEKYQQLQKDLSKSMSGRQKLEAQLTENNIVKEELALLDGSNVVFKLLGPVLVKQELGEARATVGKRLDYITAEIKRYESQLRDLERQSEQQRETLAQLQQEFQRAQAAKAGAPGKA
UniProt Q16877: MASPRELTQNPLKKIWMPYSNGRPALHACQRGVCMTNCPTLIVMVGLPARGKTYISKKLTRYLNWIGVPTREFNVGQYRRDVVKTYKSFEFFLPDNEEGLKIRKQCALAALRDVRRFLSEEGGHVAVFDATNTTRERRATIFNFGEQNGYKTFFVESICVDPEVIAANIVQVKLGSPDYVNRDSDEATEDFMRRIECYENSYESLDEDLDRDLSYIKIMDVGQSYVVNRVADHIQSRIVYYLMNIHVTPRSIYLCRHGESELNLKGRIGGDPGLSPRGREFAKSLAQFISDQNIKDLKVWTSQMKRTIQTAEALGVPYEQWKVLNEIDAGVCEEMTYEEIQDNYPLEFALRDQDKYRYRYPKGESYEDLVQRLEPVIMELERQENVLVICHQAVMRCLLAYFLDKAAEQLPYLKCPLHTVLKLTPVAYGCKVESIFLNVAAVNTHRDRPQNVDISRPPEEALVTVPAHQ
UniProt Q00169: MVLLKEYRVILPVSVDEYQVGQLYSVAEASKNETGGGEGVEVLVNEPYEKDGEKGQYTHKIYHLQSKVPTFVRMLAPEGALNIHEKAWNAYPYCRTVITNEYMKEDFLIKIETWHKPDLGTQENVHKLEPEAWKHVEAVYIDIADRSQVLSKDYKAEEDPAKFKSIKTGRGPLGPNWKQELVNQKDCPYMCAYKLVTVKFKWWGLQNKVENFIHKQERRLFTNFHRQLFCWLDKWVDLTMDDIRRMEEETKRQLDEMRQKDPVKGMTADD
UniProt Q9NWS0, whole entry, looked up: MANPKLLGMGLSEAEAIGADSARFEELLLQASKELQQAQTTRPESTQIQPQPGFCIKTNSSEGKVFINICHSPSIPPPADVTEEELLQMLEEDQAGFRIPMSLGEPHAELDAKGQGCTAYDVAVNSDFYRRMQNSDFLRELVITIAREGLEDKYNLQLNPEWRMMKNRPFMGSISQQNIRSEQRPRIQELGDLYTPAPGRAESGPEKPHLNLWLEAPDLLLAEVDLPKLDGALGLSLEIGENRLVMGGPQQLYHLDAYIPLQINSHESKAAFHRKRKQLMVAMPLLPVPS
UniProt P56589: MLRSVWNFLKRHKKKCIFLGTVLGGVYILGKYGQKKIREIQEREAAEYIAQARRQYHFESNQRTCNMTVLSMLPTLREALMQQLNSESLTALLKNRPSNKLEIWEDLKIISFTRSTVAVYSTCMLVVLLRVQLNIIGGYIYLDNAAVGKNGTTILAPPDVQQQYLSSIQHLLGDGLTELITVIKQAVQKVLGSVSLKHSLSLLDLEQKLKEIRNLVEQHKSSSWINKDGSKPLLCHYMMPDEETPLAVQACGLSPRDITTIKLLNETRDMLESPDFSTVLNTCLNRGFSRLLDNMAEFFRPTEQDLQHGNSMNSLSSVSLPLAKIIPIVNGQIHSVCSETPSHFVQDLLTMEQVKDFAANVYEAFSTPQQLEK
UniProt O00459, whole entry, looked up: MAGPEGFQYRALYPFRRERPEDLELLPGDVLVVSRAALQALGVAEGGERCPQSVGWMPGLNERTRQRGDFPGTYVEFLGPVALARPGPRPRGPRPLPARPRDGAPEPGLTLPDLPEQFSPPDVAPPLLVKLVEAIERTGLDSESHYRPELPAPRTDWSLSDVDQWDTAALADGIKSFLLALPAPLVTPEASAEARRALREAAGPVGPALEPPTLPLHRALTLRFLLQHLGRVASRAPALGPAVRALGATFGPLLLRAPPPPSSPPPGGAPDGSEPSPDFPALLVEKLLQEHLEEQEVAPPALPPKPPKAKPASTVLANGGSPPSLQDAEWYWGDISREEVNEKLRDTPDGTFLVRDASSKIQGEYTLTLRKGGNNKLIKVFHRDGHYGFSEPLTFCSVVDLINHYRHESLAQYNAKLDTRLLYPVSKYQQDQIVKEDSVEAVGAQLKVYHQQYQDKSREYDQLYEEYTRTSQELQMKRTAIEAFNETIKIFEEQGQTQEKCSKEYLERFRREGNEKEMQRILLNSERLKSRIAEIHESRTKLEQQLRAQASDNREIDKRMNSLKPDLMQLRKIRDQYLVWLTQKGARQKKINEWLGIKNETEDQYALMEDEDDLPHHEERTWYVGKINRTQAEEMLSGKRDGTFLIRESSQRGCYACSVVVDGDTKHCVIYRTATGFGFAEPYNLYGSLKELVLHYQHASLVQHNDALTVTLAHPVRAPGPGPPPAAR
UniProt O95336: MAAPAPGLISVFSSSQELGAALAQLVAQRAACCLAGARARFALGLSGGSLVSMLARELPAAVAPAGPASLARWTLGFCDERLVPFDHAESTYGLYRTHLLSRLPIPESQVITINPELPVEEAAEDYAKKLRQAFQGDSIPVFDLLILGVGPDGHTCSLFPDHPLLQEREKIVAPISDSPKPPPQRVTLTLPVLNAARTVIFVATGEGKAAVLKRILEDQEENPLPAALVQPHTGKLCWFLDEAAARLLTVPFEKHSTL

Assays:
Test in all cases: log2 fold change, soluble protein after heating vs DMSO (PISA); higher = thermal stabilisation; K562 cells, 10 uM, 30 min; active = over 0.2 and 3.5 SD of the protein, either way, in both replicates (recomputed)
[1] = compound: CN1CCN(CCOc2cc(OC3CCOCC3)c3c(Nc4c(Cl)ccc5c4OCO5)ncnc3c2)CC1 [saracatinib]
In short: (§1)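 For each measurement, 10 μM compound was applied for 30 min to K562 cells at 2×10^6 cells/mL. Aliquots were heated for 3 min across 48°C-58°C, pooled, and extracted in PBS with 0.5% NP-40 at 4°C; the supernatant after 21,000xg for 90 min was soluble protein. This was quantified by TMTpro 16plex LC-MS/MS with channel sums equalised, and thermal stability was reported relative to control samples from duplicates, on a log2 fold-change scale.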

[2] = compound: CN1CCN(c2nc(C3=C(c4c[nH]c5ccccc45)C(=O)NC3=O)c3ccccc3n2)CC1 [sotrastaurin]
In short: as §1

[3] = compound: CN1CC[C@H](c2c(O)cc(O)c3c(=O)cc(-c4ccccc4Cl)oc23)[C@H](O)C1 [alvocidib]
In short: as §1

[4] = compound: CN1CCc2c(c3ccccc3n2Cc2ccc(C(=O)NO)cc2)C1 [Tubastatin A]
In short: as §1

[5] = compound: CNC(=O)C1=CC=CC=C1NC2=NC(=NC=C2Cl)NC3=C(C=C(C=C3)N4CCOCC4)OC
In short: as §1

[6] = compound: CNC(=O)c1ccc(Nc2ncc(C(F)(F)F)c(NCc3nccnc3N(C)S(C)(=O)=O)n2)cc1 [defactinib]
In short: as §1

[7] = compound: CNCc1ccc(-c2[nH]c3cc(F)cc4c3c2CCNC4=O)cc1 [rucaparib]
In short: as §1

[8] = compound: CNc1nc(-c2ccc3c(N)n[nH]c3c2)cc(N2C[C@@H](C(=O)NC3CCCCC3)CC[C@H]2C)n1
In short: as §1

[9] = compound: COC(=O)N[C@@H](C)CNc1nccc(-c2cn(C(C)C)nc2-c2cc(Cl)cc(NS(C)(=O)=O)c2F)n1 [encorafenib]
In short: as §1

[10] = compound: COC(=O)[C@H](CCSC)NC(=O)C1=C(C=C(C=C1)NC[C@H](CS)N)C2=CC=CC=C2
In short: as §1

[11] = compound: COC1=CC=C(C=C1)CN2C=CC3=C2C=C(C=C3)C(=O)NO
In short: as §1

[12] = compound: CON(C)C(=O)N1N=C(c2cc(F)ccc2F)S[C@@]1(CCCN)c1ccccc1 [filanesib]
In short: as §1

[13] = compound: CO[C@H]1C[C@@H]2CC[C@@H](C)[C@@](O)(O2)C(=O)C(=O)N2CCCC[C@H]2C(=O)O[C@H]([C@H](C)C[C@@H]2CC[C@H](n3cnnn3)[C@H](OC)C2)CC(=O)[C@H](C)/C=C(\C)[C@@H](O)[C@@H](OC)C(=O)[C@H](C)C[C@H](C)/C=C/C=C/C=C/1C [zotarolimus]
In short: as §1

[14] = compound: COc1cc(C(=O)O)ccc1NC(=O)[C@@H]1N[C@@H](CC(C)(C)C)[C@](C#N)(c2ccc(Cl)cc2F)[C@H]1c1cccc(Cl)c1F [idasanutlin]
In short: as §1

[15] = compound: COc1cc(Nc2ncc3c(n2)-c2ccc(Cl)cc2C(c2c(F)cccc2OC)=NC3)ccc1C(=O)O [alisertib]
In short: as §1

[16] = compound: COc1cc2nc(-c3cc(F)ccc3O)nc(N[C@@H]3CNC[C@H]3C(C)(C)O)c2cc1OC
In short: as §1

[17] = compound: COc1cc2ncnc(Nc3ccc(F)c(Cl)c3)c2cc1OCCCN1CCOCC1 [gefitinib]
In short: as §1

[18] = compound: COc1cccc2cc(-c3nc([C@H]4CC[C@H](C(=O)O)CC4)n4ncnc(N)c34)[nH]c12
In short: as §1

[19] = compound: CS(=O)(=O)CCNCc1ccc(-c2ccc3ncnc(Nc4ccc(OCc5cccc(F)c5)c(Cl)c4)c3c2)o1 [lapatinib]
In short: as §1

[20] = compound: CS(=O)(=O)N1CCN(Cc2cc3nc(-c4cccc5[nH]ncc45)nc(N4CCOCC4)c3s2)CC1 [pictilisib]
In short: as §1

Measured: log2 fold change

PIGA (UniProt P37287)
inactive: [1] -0.057 | [2] 0.011 | [3] -0.02 | [4] -0.024 | [5] 0.041 | [6] 0.027 | [7] -0.02 | [8] -0.158 | [9] 0.007 | [10] 0.018 | [11] -0.144 | [12] -0.007 | [13] 0.035 | [14] 0.07 | [15] -0.017 | [16] 0.066 | [17] 0.013 | [18] -0.017 | [19] 0.003 | [20] -0.425

PFDN4 (UniProt Q9NQP4)
inactive: [1] 0.031 | [2] 0.02 | [3] 0.049 | [4] 0.163 | [5] -0.007 | [6] 0.045 | [7] -0.048 | [8] -0.048 | [9] -0.027 | [10] -0.003 | [11] -0.125 | [12] 0.015 | [13] 0.017 | [14] 0.07 | [15] -0.052 | [16] 0.018 | [17] -0.015 | [18] 0.164 | [19] 0.026 | [20] 0.002

PLCD1 isoform 2 (UniProt P51178)
inactive: [1] -0.026 | [2] -0.028 | [3] -0.106 | [4] 0.041 | [5] -0.087 | [6] -0.065 | [7] 0.038 | [8] 0.087 | [9] 0.011 | [10] 0.021 | [11] -0.013 | [12] -0.081 | [13] 0.085 | [14] -0.072 | [15] -0.053 | [16] -0.02 | [17] 0.029 | [18] 0.008 | [19] 0 | [20] -0.015

PITPNB isoform 3 (UniProt P48739)
inactive: [1] 0.005 | [2] 0.109 | [3] -0.046 | [4] -0.033 | [5] 0.063 | [6] -0.002 | [7] -0.015 | [8] -0.035 | [9] -0.018 | [10] 0.004 | [11] -0.008 | [12] -0.026 | [13] 0.112 | [14] -0.1 | [15] -0.008 | [16] 0.005 | [17] 0.035 | [18] -0.002 | [19] 0.005 | [20] 0.133

PKLR (UniProt P30613)
inactive: [1] 0.028 | [2] 0.019 | [3] -0.029 | [4] -0.008 | [5] -0.069 | [6] -0.006 | [7] -0.051 | [8] -0.016 | [9] -0.009 | [10] 0.023 | [11] 0.01 | [12] -0.016 | [13] 0.024 | [14] -0.013 | [15] -0.073 | [16] 0.024 | [17] -0.002 | [18] 0.047 | [19] -0.017 | [20] 0.02

PI4KB (UniProt Q9UBF8)
inactive: [1] 0.008 | [2] 0.028 | [3] -0.052 | [4] 0.01 | [5] -0.023 | [6] -0.078 | [7] 0.002 | [8] 0.068 | [9] -0.046 | [10] 0.013 | [11] -0.027 | [12] -0.048 | [13] -0.047 | [14] -0.034 | [15] -0.053 | [16] 0.015 | [17] -0.024 | [18] 0.045 | [19] 0.046 | [20] 0.024

PFKFB2 (UniProt O60825)
inactive: [1] 0.006 | [2] 0.046 | [3] -0.019 | [4] -0.029 | [5] -0.036 | [6] -0.012 | [7] -0.009 | [8] -0.012 | [9] -0.004 | [10] -0.013 | [11] -0.001 | [12] -0.029 | [13] 0.01 | [14] -0.055 | [15] -0.078 | [16] 0.024 | [17] 0.003 | [18] 0.019 | [19] -0.008 | [20] -0.057

PFDN6 (UniProt O15212)
inactive: [1] -0.016 | [2] 0.02 | [3] 0.019 | [4] 0.02 | [5] -0.018 | [6] -0.002 | [7] -0.014 | [8] -0.017 | [9] -0.014 | [10] -0.03 | [11] -0.036 | [12] -0.052 | [13] -0.026 | [14] 0.029 | [15] -0.044 | [16] -0.018 | [17] -0.018 | [18] 0.014 | [19] 0.024 | [20] -0.012

PFKFB4 (UniProt Q16877)
inactive: [1] -0.003 | [2] 0.044 | [3] -0.029 | [4] -0.026 | [5] -0.08 | [6] 0.012 | [7] 0.032 | [8] -0.001 | [9] -0.017 | [10] 0.006 | [11] -0.029 | [12] -0.014 | [13] -0.004 | [14] 0.008 | [15] -0.014 | [16] 0.06 | [17] -0.026 | [18] 0.016 | [19] 0.004 | [20] -0.022

PEX6 (UniProt Q13608)
inactive: [1] 0.013 | [2] 0.089 | [3] 0.008 | [4] 0.021 | [5] 0.069 | [6] -0.01 | [7] 0.002 | [8] -0.054 | [9] 0.016 | [10] -0.021 | [11] -0.064 | [12] -0.123 | [13] -0.014 | [14] -0.048 | [15] -0.029 | [16] -0.044 | [17] 0.048 | [18] 0.038 | [19] -0.015 | [20] -0.017

PITPNA (UniProt Q00169)
inactive: [1] -0.005 | [2] 0.014 | [3] -0.053 | [4] -0.019 | [5] -0.017 | [6] -0.015 | [7] -0.071 | [8] -0.066 | [9] -0.028 | [10] 0.002 | [11] -0.102 | [12] -0.051 | [13] -0.03 | [14] -0.047 | [15] -0.007 | [16] 0.072 | [17] 0.028 | [18] 0.001 | [19] -0.043 | [20] 0.106

Two consecutive entries from above, for reference:
PEX6 (UniProt Q13608)
inactive: [1] 0.013 | [2] 0.089 | [3] 0.008 | [4] 0.021 | [5] 0.069 | [6] -0.01 | [7] 0.002 | [8] -0.054 | [9] 0.016 | [10] -0.021 | [11] -0.064 | [12] -0.123 | [13] -0.014 | [14] -0.048 | [15] -0.029 | [16] -0.044 | [17] 0.048 | [18] 0.038 | [19] -0.015 | [20] -0.017

PITPNA (UniProt Q00169)
inactive: [1] -0.005 | [2] 0.014 | [3] -0.053 | [4] -0.019 | [5] -0.017 | [6] -0.015 | [7] -0.071 | [8] -0.066 | [9] -0.028 | [10] 0.002 | [11] -0.102 | [12] -0.051 | [13] -0.03 | [14] -0.047 | [15] -0.007 | [16] 0.072 | [17] 0.028 | [18] 0.001 | [19] -0.043 | [20] 0.106

Further records follow.

PLEC (UniProt Q15149)
inactive: [1] -0.078 | [2] 0.016 | [3] 0.115 | [4] 0.13 | [5] 0.041 | [6] 0.037 | [7] 0.123 | [8] 0.015 | [9] 0.007 | [10] -0.026 | [11] 0.111 | [12] 0.118 | [13] 0.057 | [14] 0.218 | [15] 0.011 | [16] -0.017 | [17] -0.04 | [18] -0.11 | [19] 0.036 | [20] 0.064

PIH1D1 (UniProt Q9NWS0)
inactive: [1] -0.026 | [2] -0.074 | [3] -0.012 | [4] 0.006 | [5] 0.026 | [6] -0.092 | [7] -0.01 | [8] -0.032 | [9] 0.122 | [10] 0.022 | [11] 0.185 | [12] -0.017 | [13] -0.019 | [14] 0.013 | [15] -0.056 | [16] -0.014 | [17] -0.032 | [18] -0.067 | [19] 0.097 | [20] -0.027

PEX3 (UniProt P56589)
inactive: [1] 0.044 | [2] 0 | [3] 0.045 | [4] 0.202 | [5] -0.11 | [6] -0.176 | [7] 0.264 | [8] 0.108 | [9] 0.023 | [10] 0.116 | [11] -0.055 | [12] 0.282 | [13] 0.137 | [14] -0.112 | [15] 0.001 | [16] 0.298 | [17] -0.044 | [18] -0.185 | [19] -0.009

PIK3R2 (UniProt O00459)
inactive: [1] -0.059 | [2] -0.025 | [3] -0.032 | [4] 0.008 | [5] 0.067 | [6] -0.106 | [7] -0.061 | [8] 0.015 | [9] 0.076 | [10] 0.012 | [11] -0.066 | [12] -0.089 | [13] -0.046 | [14] 0.012 | [15] 0.026 | [16] 0.002 | [17] 0.014 | [18] 0.114 | [19] -0.054 | [20] 0.19

PGLS (UniProt O95336)
inactive: [1] -0.036 | [2] 0.026 | [3] -0.082 | [4] 0.043 | [5] -0.033 | [6] -0.064 | [7] -0.02 | [8] -0.07 | [9] -0.061 | [10] 0.146 | [11] -0.1 | [12] 0.048 | [13] 0.033 | [14] -0.013 | [15] -0.139 | [16] -0.131 | [17] 0.026 | [18] 0.059 | [19] -0.107 | [20] 0.049
